Experimental findings from article PMC10644093 are described below.

Sequences of proteins named here, by UniProt entry; tags and fusion partners are left off. Residues count along the entry.
UniProt P9WGT7, residues 23-370: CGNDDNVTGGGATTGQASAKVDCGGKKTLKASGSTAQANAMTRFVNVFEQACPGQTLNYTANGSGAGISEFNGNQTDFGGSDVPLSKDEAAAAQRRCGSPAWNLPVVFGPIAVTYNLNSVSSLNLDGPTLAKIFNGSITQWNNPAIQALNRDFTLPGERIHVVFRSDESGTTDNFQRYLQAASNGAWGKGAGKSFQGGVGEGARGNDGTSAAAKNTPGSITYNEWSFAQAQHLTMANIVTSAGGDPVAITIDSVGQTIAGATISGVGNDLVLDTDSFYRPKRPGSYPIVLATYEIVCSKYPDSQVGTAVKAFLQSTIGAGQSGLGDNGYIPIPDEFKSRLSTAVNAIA

These are yes or no findings as the source states them, for the method shown. Binding seen in cells or lysates may run through a third protein. Some binding calls cover weakened binding; strength is not graded here.

The experiment has as its target Flag-tagged Mycobacterium tuberculosis Rv0928 protein stably expressed in RAW264.7 cells (RAW-Rv0928) (Mycobacterium tuberculosis H37Rv) (UniProt P9WGT7). Briefly: co-IP.

B1: mitochondrial phosphate carrier protein SLC25A3 (protein, UniProt Q8VEM8 46-357)
chain: AVEEYSCEFGSMKYYALCGFGGVLSCGLTHTAVVPLDLVKCRMQVDPQKYKGIFNGFSITLKEDGVRGLAKGWAPTLIGYSMQGLCKFGFYEVFKALYSNILGEENTYLWRTSLYLASSASAEFFADIALAPMEAAKVRIQTQPGYANTLREAVPKMYKEEGLNAFYKGVAPLWMRQIPYTMMKFACFERTVEALYKFVVPKPRSECTKAEQLVVTFVAGYIAGVFCAIVSHPADSVVSVLNKEKGSTASQVLQRLGFRGVWKGLFARIIMIGTLTALQWFIYDSVKVYFRLPRPPPPEMPESLKKKLGLTE
Take B1: the binding entry is recorded as “binds”.
